Test [1] has as its target rIgG.cεmx (human). The test is described as follows: ELISA (FIG. 7C).
Test [2] has as its target rIgG.cεmx.migis (human). The test is described as follows: ELISA (FIG. 7C). (An ELISA detects its analyte on a solid surface through an enzyme-linked reagent.)
In test [3] the target is rIgG.cεmx.migis (human). Put plainly: ELISA, D5 at 1.25 to 20 µg/ml (FIG. 7C).
Test [4] has as its target rIgG.cεmx (human). The test is described as follows: ELISA of D5 at 1.25 to 20 µg/ml on IgG Fc.cεmx or IgG Fc.cεmx.migis.
For test [5], the target named is rIgG.cεmx.migis (human). The description is as above.

These are yes or no findings as the source states them, for the method shown. For some assays here: Binding can be weak; no strength is given.

This is an account of results in US20120141463A1.

B1: D5 antibody (antibody, V domains shown)
VH: EVQLLESGGGLVQPGGSLRLSCAASGFTFSKYHMVWVRQAPGKGLEWVSSIGPSGGNTYYADSVKGRFTISRDNSKNTLYLQMNSLRAEDTATYYCARALGATFDYWGQGTLVTVSS
VL: DIQMTQSPLSLPVTLGQPASISCKSSQSLVYRDGITYLSWFQQRPGQSPRRLIYKVSNRDSGVPDRFSGSGSDSNFTLKISSVEAEDVGLYFCMQGSHWPFTFGPGTKVDIKR
Turning to B1, the binding result is “no binding (tested: 1.25 to 20 µg/ml)” in test [1]; “binds” in test [2]; “binds” in test [3]; “no binding (tested: 20 µg/ml)” in test [4]; “binds” in test [5].
